Measured values: the supplement of paper PMC3334620
In all, about 33,000 sequences were measured (“E-score (-0.5 to 0.5)”: median about -0.015, highest 2% from about 0.3 on). This is one part of the list.

target: T1, Abf1 (UniProt P14164); assay: PBM E-score (8-mer binding enrichment) (E-score (-0.5 to 0.5)); higher = stronger / more preferred TF binding; conditions: protein concentration: 200 nM; construct: GST-full length
T1 sequence: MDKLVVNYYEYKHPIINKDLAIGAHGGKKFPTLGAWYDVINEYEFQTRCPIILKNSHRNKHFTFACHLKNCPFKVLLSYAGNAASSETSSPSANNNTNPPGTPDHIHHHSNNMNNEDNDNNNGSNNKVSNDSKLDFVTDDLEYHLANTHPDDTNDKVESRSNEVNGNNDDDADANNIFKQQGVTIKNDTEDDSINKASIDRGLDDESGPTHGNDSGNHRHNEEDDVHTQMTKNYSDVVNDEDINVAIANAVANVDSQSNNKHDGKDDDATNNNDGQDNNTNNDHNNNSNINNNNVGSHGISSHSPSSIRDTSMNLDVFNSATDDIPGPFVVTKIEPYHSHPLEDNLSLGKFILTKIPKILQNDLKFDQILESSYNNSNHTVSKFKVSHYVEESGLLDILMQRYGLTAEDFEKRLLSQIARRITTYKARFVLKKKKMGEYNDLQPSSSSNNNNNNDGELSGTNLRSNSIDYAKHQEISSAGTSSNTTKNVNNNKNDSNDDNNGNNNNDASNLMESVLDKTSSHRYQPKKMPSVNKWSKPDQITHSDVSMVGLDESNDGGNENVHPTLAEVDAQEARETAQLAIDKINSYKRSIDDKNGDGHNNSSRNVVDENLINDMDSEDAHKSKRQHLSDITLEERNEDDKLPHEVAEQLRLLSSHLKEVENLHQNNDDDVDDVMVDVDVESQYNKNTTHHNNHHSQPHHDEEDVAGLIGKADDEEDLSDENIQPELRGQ
Procedure, shortened: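 For each ungapped eight-base word taken together with its reverse complement, the Universal PBM Analysis Suite assigned an E-score. Binding data came from GST-tagged yeast transcription factors, applied at about 100-200 nM, on universal all-10-mer Agilent arrays made double-stranded by primer extension. Fluorescent anti-GST marked bound protein, and scans were normalised with masliner.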

| Sequence | PBM E-score |
| --- | --- |
| AGCAGGGG | -0.223 |
| ATGGTGCC | -0.164 |
| CGGCAGAC | -0.0792 |
| ACCAACGG | -0.126 |
| AGCGGTTG | 0.0211 |
| CTGTGCTC | -0.0915 |
| GAACTCAA | -0.256 |
| GCACTAAC | -0.083 |
| GAAAGGGA | -0.0394 |
| AGCGGCTG | -0.107 |
| CACAGTCC | -0.0715 |
| AATTCAGC | -0.0342 |
| ATCCTGGC | -0.0263 |
| AATTTTGT | 0.137 |
| AGCACGAC | 0.0471 |
| TGACATAA | 0.351 |
| AAGGTAAA | 0.057 |
| CGCGTCGC | -0.0158 |
| ACCATTAT | 0.14 |
| AACAATCT | -0.074 |
| AGAAGTGG | -0.122 |
| TATTAACA | 0.237 |
| AATGCGAG | 0.0328 |
| AGTCGGTG | -0.25 |
| GCACCTAA | 0.0243 |

| Sequence | PBM E-score |
| --- | --- |
| CACGATGG | 0.0243 |
| GGACTAGA | -0.175 |
| ACGCGAAT | -0.0212 |
| TAAACGAA | 0.259 |
| AGATGACC | 0.132 |
| ATGAAGGC | -0.22 |
| CTTAACCA | 0.0442 |
| ACATGTAT | 0.00856 |
| CGCCCTCA | -0.224 |
| CGCAAGCA | 0.173 |
| ACCGCAGG | -0.182 |
| AACATAGA | -0.124 |
| CATGTGAC | -0.106 |
| AACTTCTT | 0.0816 |
| AGGGCGAT | -0.118 |
| CCATATCC | -0.0911 |
| CGTGCGAA | 0.223 |
| GCCTTCGC | -0.273 |
| CAAGGCAA | -0.1 |
| GGTACGTA | 0.0572 |
| ACCCAAAA | -0.0143 |
| AGCAGACT | -0.0452 |
| ACCCGGCG | -0.111 |
| TATATACA | 0.198 |
| ACATACGT | 0.033 |

| Sequence | PBM E-score |
| --- | --- |
| CACACCCC | -0.322 |
| CTATTTCC | 0.144 |
| CAGACTGA | -0.181 |
| GAATTTAC | 0.0972 |
| ACAATGAC | 0.107 |
| CGCCTGAA | 0.0846 |
| AGGGGGTG | -0.25 |
| ATAGGTCA | 0.143 |
| GACAAGGC | 0.081 |
| ACGGGAAA | 0.113 |
| ACAGGCTG | -0.175 |
| GCTCGAGC | 0.0628 |
| AATAACTG | 0.0995 |
| GGCCAACC | -0.177 |
| TATACGAA | 0.368 |
| AATTCCAC | 0.0539 |
| AATGATAA | 0.408 |
| ACACTCCT | -0.188 |
| AGAACTGA | 0.0656 |
| CCTTAGCA | -0.151 |
| GCGATACC | -0.0637 |
| ATCGACGC | 0.0916 |
| TCTGGCCA | -0.162 |
| ATGGGGCG | -0.0303 |
| ATTTAGTA | 0.241 |

Quoted from the listing.
AATGATAA – PBM E-score: 0.408
CAGACTGA – PBM E-score: -0.181
TCTGGCCA – PBM E-score: -0.162

Some of the entries above in another layout:
Sequence | PBM E-score
ACCCGGCG | -0.111
TATATACA | 0.198

Next part

| Sequence | PBM E-score |
| --- | --- |
| GGATTAAA | -0.136 |
| GCGGTTGA | 0.0217 |
| GGCCAGAC | -0.132 |
| ACTGGCAA | -0.0435 |
| ACCGTAAA | 0.14 |
| AAATGTGG | 0.128 |
| GCGCAAAA | 0.0585 |
| AAACGTAT | 0.19 |
| GAGCGCGC | -0.0752 |
| GGACCCCC | -0.249 |
| CACGTTGC | 0.115 |
| AGGGAGTA | -0.187 |
| AAGTTCAT | -0.223 |
| ACTTGCAC | -0.011 |
| AGACCACC | -0.221 |
| AGGCGGCC | -0.186 |
| AGGTCGAC | -0.0264 |
| ATGTATGG | -0.135 |
| CCCCTGAA | -0.126 |
| AGACCCCC | -0.314 |
| ATCTATTA | 0.0474 |
| ACGCACTA | 0.0452 |
| AGCGCGGA | -0.166 |
| CTTTGCCC | -0.172 |
| AGCACGAT | 0.264 |

| Sequence | PBM E-score |
| --- | --- |
| CCTTCAAG | -0.208 |
| AAGGGTAG | -0.092 |
| GCTAGTTA | 0.0469 |
| CATCCAAG | -0.136 |
| ACGAGCCC | 0.0182 |
| GCAGAATA | 0.0578 |
| CAACTCAC | 0.00633 |
| ATACGGGC | 0.26 |
| CAGTCTGG | -0.31 |
| TGAACAAA | 0.172 |
| AGGATATG | 0.157 |
| ATTCTATG | -0.0171 |
| ATACCGAA | 0.189 |
| CCGCCTTA | -0.136 |
| CCGCACGG | 0.0967 |
| ACAATGCA | 0.105 |
| CAGGTTGG | -0.128 |
| CGAAAGCC | -0.237 |
| CGTGGTTA | 0.242 |
| ATGTTCAA | 0.113 |
| AGATTCCA | 0.0937 |
| AAGACACG | 0.137 |
| AGTCCGTC | 0.0966 |
| AGTACTAA | 0.1 |
| AAGTTCCT | 0.0113 |

6 neighbouring records from above, for reference:

| Sequence | PBM E-score |
| --- | --- |
| ATACGGGC | 0.26 |
| CAGTCTGG | -0.31 |
| TGAACAAA | 0.172 |
| AGGATATG | 0.157 |
| ATTCTATG | -0.0171 |
| ATACCGAA | 0.189 |

(list continues)

| Sequence | PBM E-score |
| --- | --- |
| AGTATCTG | -0.0657 |
| ACTGTTGA | -0.118 |
| ATAGTAGA | 0.0823 |
| ACGATGCA | 0.0908 |
| GAGGTATA | 0.0678 |
| TATATGAA | 0.0754 |
| CTCCGAAG | -0.145 |
| AACGGCAC | 0.166 |
| CAGAAATA | 0.0831 |
| ATCATCGC | 0.301 |
| CCTTTGTC | 0.017 |
| CTACAGAA | -0.0367 |
| GAGCTCGA | 0.0275 |
| ATGCCCTC | -0.00994 |
| TCCGGGAA | 0.0377 |
| CAGAGATC | -0.151 |
| TAGGCACA | -0.153 |
| GTGATTTA | 0.317 |
| CCCTTGTA | -0.119 |
| AGACGACG | 0.235 |
| ATCCAGTA | -0.1 |
| GCATGCCC | -0.0869 |
| AAAAGGAG | -0.268 |
| GGGTTGAC | -0.144 |
| AATCGTGG | 0.125 |

| Sequence | PBM E-score |
| --- | --- |
| CCCTCACG | -0.0983 |
| AATTTTTG | 0.211 |
| AAGTCAAA | -0.0446 |
| TGAGGACA | 0.0941 |
| AAGCACGG | 0.0624 |
| GCTCGCAC | -0.00456 |
| CCTACAGC | -0.195 |
| TCTAACCA | 0.0286 |
| CGGCCGGA | -0.18 |
| CCGCTTAG | -0.281 |
| CCCACAGG | -0.0723 |
| AAACATTA | -0.152 |
| CTTGTCGC | -0.0296 |
| TATCGAAA | 0.112 |
| TACGCATA | 0.108 |
| AGGGAACA | -0.253 |
| AACTAAAG | 0.0418 |
| ACTGAGAT | -0.075 |
| ATCAAGGG | 0.0736 |
| AAATATGG | 0.00692 |
| CTTGGGCC | -0.163 |
| ACGACGAT | 0.315 |
